## Screening data, single-dose tests

Protein sequences, listed by entry. Tags and fused reporters are not part of them. Residues count along the entry.
UniProt A4I591, 1-473: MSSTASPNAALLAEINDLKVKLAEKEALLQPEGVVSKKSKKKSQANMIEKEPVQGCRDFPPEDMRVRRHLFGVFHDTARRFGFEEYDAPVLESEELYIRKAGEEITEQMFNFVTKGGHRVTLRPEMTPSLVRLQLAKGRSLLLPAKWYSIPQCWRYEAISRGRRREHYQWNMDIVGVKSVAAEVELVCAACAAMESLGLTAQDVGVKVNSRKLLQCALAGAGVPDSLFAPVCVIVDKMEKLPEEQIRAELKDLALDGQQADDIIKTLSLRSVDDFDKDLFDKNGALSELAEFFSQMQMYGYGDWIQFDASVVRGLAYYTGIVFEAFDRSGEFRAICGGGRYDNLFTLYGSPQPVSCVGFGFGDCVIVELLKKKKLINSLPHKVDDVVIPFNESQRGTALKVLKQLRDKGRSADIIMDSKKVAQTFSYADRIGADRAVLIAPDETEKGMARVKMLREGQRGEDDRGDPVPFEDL

Data taken from ChEMBL document CHEMBL3988442, “University of Dundee, Small-Polar-MMV Screening Library” (2021).

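Enzyme assay of histidyl-tRNA synthetase; the read-out is not stated. Target: Histidine-tRNA ligase, Leishmania infantum (UniProt A4I591). Tested at 30 µM. Higher reads as stronger inhibition (inferred: compounds with an IC50 in retests scored well above the rest). The assay is labelled LdHisRS but filed under L. infantum. Size under these conditions: about 69,000 compounds, about 410 of them at 50% or above in at least one test.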

Each number is a percent effect as filed. The controls that fix the scale are not given in the record; negative values are as filed. Compounds were drawn at random from those tested, without regard to their results.

compound,percent effect
COc1ccccc1-c1csc(NC(=O)N2CCN(C)CC2C)n1 (configuration not stated),14.29%
Cc1cnc(C(=O)N2CCc3ncnc(-c4cnn(C)c4)c3CC2)cn1,16.67%
Cc1nn(C)c2cn(CC(=O)N3CCN(c4ccccn4)CC3)nc12,11.11%
Cc1cc(C(=O)N2C[C@@H]3COC[C@]3(CN(C)C)C2)sc1C,-39.32%
COCc1ccccc1CNc1nnc(C)c(C)c1C#N,12.31%
Cc1ccc([C@@H]2CN(C(=O)c3ccoc3C)C[C@H]2NC(=O)C2CC2)cc1,0%
CCc1oc(C(=O)NCCc2nc(C(=O)O)cs2)cc1CN1CCCC1,5.333%
CCc1cnc(N2C[C@H]3C[C@H](C(=O)N(C)C)[C@@H](C2)O3)nc1,16.98%
Cc1nc(-c2cccc(C(=O)O)c2)cc(C2CCN(C(C)C)C2)n1 (configuration not stated),14.29%
N#Cc1ccc(Cl)cc1NCC1CCOC1 (configuration not stated),8.235%
O=C(NCCS(=O)(=O)N1CCN(c2ncccn2)CC1)c1ccccc1,14.67%
Cc1cs/c(=N\C(=O)Cn2nc(N3CCSCC3)ccc2=O)[nH]1,1.099%
CC(C)COC1CCN(C(=O)c2ccc(C(F)(F)F)[nH]c2=O)CC1,15.87%
CC1CN(Cc2cccc(CN)c2)CCO1 (configuration not stated),17.78%
CC(=O)c1cn(CC(=O)N[C@H](C(=O)O)C(C)C)c2ccccc12,11.96%
CN(C)c1cccc(C(=O)N2C[C@H]3CC[C@@H]2CN(C(=O)C2CCC2)C3)c1,18.4%
Fc1cnc(NCC2Cn3nnc(-c4ccccc4)c3CO2)nc1 (configuration not stated),1%
O=C(CN1CCCC1Cn1cncn1)NCC1(c2ccccc2)CC1 (configuration not stated),11.11%
C1CCC(NC2CCCN(Cc3noc(C4CC4)n3)C2)C1 (configuration not stated),6.122%
COCc1ncn(Cc2nc(-c3ccc(OC)cc3F)oc2C)n1,3.39%
O=C(c1ccc(Cn2cnnn2)cc1)N1CCC(c2ccncc2)CC1,13.11%
CCN(Cc1noc(C)n1)C(=O)C(c1ccccc1C)N(C)C (configuration not stated),19.4%
Cc1nc(=O)c2ccccc2n1C1=CCN(CC(=O)N2CCCC2)CC1,21.48%
CNC(=O)CN1CCCC12CCN(C(=O)c1ccccc1F)CC2,5.769%
COc1ccc(CNCC2CNc3cc(C)nn3C2)cn1 (configuration not stated),19.64%
CC(C)OC(=O)N1C[C@H]2CC[C@@H]1CN(C(=O)c1ccccc1)C2,13.33%
O=c1n(CCNCc2cccc3ccccc23)nc2ccccn12,22.34%
Cc1cnn(CC2CN(Cc3noc(C4CC4)n3)CCO2)c1 (configuration not stated),14.29%
CCn1ccc(NS(=O)(=O)c2cccc(CSC)c2)n1,10.62%
CCCc1nc(N2CCCN(c3ncccn3)CC2)c2cnn(C)c2n1,13.11%
CS(=O)(=O)c1cccc(S(=O)(=O)NC(=O)c2cscn2)c1,18%
CCOc1cccc2c1OCC(C(=O)NS(=O)(=O)c1cccs1)=C2,-1.754%
O=C(NC[C@H]1C[C@@H]2CCN1C[C@@H]2CN1CCCCC1)Nc1ccsc1,11.11%
N#Cc1ccccc1CN1CCC2(CC1)CC(c1ccccc1)C(=O)N2 (configuration not stated),20.51%
Cc1noc(C)c1CN1CCn2cc(CN3CCCCC3)nc2C1,25%
Cc1cn2c(n1)CCC(NC(=O)c1oc(Br)cc1C)C2 (configuration not stated),12.07%
Cc1ccc(NC2(C(=O)NCCCc3c(C)n[nH]c3C)CCCC2)cc1,6.667%
CCc1nc(CNC2CCCCNC2=O)cs1 (configuration not stated),12.5%
CC[C@H]1N(CC2CCOCC2)CCC[C@]12CCC(=O)N2,10.34%
Oc1cccc(CN2CCN(c3nccc(CCC(F)(F)F)n3)CC2)c1,15.79%
COc1cc(-c2n[nH]c(CC#N)n2)cc(OC)c1OC,7.692%
CN1Cc2cnn(CC3CCCC3)c2C(COCC2CC2)C1 (configuration not stated),6.452%
CC(C)CSc1ccc(-n2cccn2)nn1,8.475%
CC(C)COC[C@H]1CC[C@H]2[C@H](CCN2C(=O)c2ccncc2F)O1,8.333%
CNC(=O)CNC(=O)NCc1cc2c(s1)CCC(C)(C)C2,2.073%
CC(=O)N1[C@H](Cn2cncn2)C[C@@H]2CN(c3ncccn3)CC[C@@H]21,13.89%
COc1cccc(C2CC(=O)Nc3nc(N4CCOCC4)sc32)c1OC (configuration not stated),111.4%
O=C(CCO)N1C[C@H]2CC[C@@H]1CN(C1Cc3ccccc3C1)C2,21.31%
O=S1(=O)C[C@@H]2[C@H](C1)N(Cc1ccc3ccccc3c1)CCN2CC1CC1,13.54%
O=C(Cn1c(=O)n(Cc2ccco2)c2ncccc21)NC1CC1,7.246%
COC(=O)c1ccc(N2CCN(C(=O)c3ccc(O)nc3)C(C)C2)cc1 (configuration not stated),7.273%
CC(=O)c1cccc(OCCCC(=O)N(C)CCc2ccncc2)c1,26.92%
COc1ccc(N2CCC(N(C)C(=O)Nc3ccncc3)CC2)cc1,22.34%
CNC(=O)c1ccc(CN2CCC(N(C)Cc3noc(C)n3)C2)cc1 (configuration not stated),16%
O=C(CCc1ccccc1)N1CCN(C(=O)c2ccc[nH]2)CC1,9.375%
COc1cccc(CNCc2ccc(F)cc2Cl)c1O,16.85%
Cc1cc(C#N)ccc1S(=O)(=O)NCc1cnc(N(C)C)n1C,9.821%
CCS(=O)(=O)NCCNC(C)(C)c1nc(C)cs1,7.853%
CN(C)C1CCN(C(=O)c2ccnn2-c2ccc3ccccn23)CC1,10%
CCc1nccn1C1CCCN(C(=O)c2ccc3nncn3c2)C1 (configuration not stated),16.44%
COC[C@@]12CCO[C@@H]1CCN(C(=O)Cc1cccc(F)c1)C2,19.35%
COc1c(C2CCCN2C(=O)c2cccn2C)c(C)nn1C (configuration not stated),4.839%
Cc1nc(CN2CCCC(c3cnccn3)C2)cs1 (configuration not stated),12.95%
O=C(Cn1nc(C(F)(F)F)c(Br)c1C1CC1)N1CCOCC1,23.08%
Cc1noc(C)c1CN1C[C@@H]2COC[C@H](C(=O)N3CCOCC3)[C@@H]2C1,22%
O=C(N1CCCC(n2cncn2)C1)C1(c2cccc(F)c2)CCC1 (configuration not stated),11.61%
NS(=O)(=O)N1CCc2ccc(NC(=O)CCc3ccncc3)cc21,28.77%
CCN(CC)S(=O)(=O)CCNC(=O)c1cc2cccc(F)c2o1,4.464%
Cc1cnc(C(=O)N2CCN(Cc3csc(C)n3)CC2)cn1,18.09%
Cc1nn(C)c2c(=O)n(CC(=O)NCc3ccccc3Cl)ccc12,-7.609%
c1cnn(Cc2nnc3n2CCCN(Cc2ccsc2)C3)c1,6.195%
CCOC(=O)CC1CCCCN1C(=O)c1cc(C)on1 (configuration not stated),2.667%
COCC(=O)N1CCC(c2cc(C(F)(F)F)n3ccnc3n2)CC1,14.29%
O=C(NC1CC1)N1CCc2ccc(=O)n(Cc3ccncc3)c2CC1,15.79%
CCC1=N[C@@]2(CC[C@@H]3CN(Cc4ccc(Cl)cc4)C[C@@H]32)C(=O)N1C,4.511%
CC(C)OCCN(C)CC(c1cccs1)N1CCOCC1 (configuration not stated),15.87%
CCc1cnc(CN2CCOC(c3nc(C)n[nH]3)C2)o1 (configuration not stated),22.22%
CCC(CC)CN1CCN(CC(=O)Nc2ccc3nsnc3c2)CC1,3.371%
Cn1ccc2c(C(=O)NCCCS(C)(=O)=O)cccc21,16.24%
Cc1cnccc1N1CCN(C[C@]2(O)CCCN3CCCC[C@@H]32)CC1,2.857%
Cc1nccc(-c2cccc(NCC(=O)N3CCOC(C)C3)c2)n1 (configuration not stated),14.91%
O=C(c1cc(C2CC2)on1)N1C[C@@H]2COC[C@]2(COc2cccnc2)C1,13.64%
OCC1CCCN1c1cc(NCCNc2cccnn2)ncn1 (configuration not stated),-1.205%
CC(C)c1noc(-c2ccc(N(C)C3CCOCC3)nc2)n1,-14.67%
O=C(CSCC1CC1)N1CCC2(CCCN(C3CCOCC3)C2=O)C1 (configuration not stated),5.319%
Cc1cnn(CC2CN(CCN3CCCC3=O)CCO2)c1 (configuration not stated),22.64%

Once more, the final 6:

With Cc1nccc(-c2cccc(NCC(=O)N3CCOC(C)C3)c2)n1 (configuration not stated) the screen gave 14.91%.
With O=C(c1cc(C2CC2)on1)N1C[C@@H]2COC[C@]2(COc2cccnc2)C1 the screen gave 13.64%.
With OCC1CCCN1c1cc(NCCNc2cccnn2)ncn1 (configuration not stated) the screen gave -1.205%.
With CC(C)c1noc(-c2ccc(N(C)C3CCOCC3)nc2)n1 the screen gave -14.67%.
With O=C(CSCC1CC1)N1CCC2(CCCN(C3CCOCC3)C2=O)C1 (configuration not stated) the screen gave 5.319%.
With Cc1cnn(CC2CN(CCN3CCCC3=O)CCO2)c1 (configuration not stated) the screen gave 22.64%.